Measurements reported in PubChem BioAssay AID602196 (INSERM, 2012).

Screen: 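Modifiers of cisplatin sensitivity in A549 cells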
Cell system: human A549 lung cancer cells
Knock-down reagent: siRNA pair against human genes
Duration: 48 h transfection before cisplatin; time from cisplatin to read-out not stated
Treatment: cisplatin at a dose killing half of control-siRNA cells; exact dose and duration not given
Read-out: 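Shift in cisplatin death relative to control siRNA, from -50 (all cells die) to +50 (no cells die); siRNAs harmful on their own scored 0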
Scale: two-siRNA summed score (-2 to +2): higher = both siRNAs protect from cisplatin killing; -2 means both sensitise; mean protection from cisplatin (shift in death): higher = protection from cisplatin killing
Active means: 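siRNAs harmful alone (LDH or WST-1) get 0; others get +1 for less and -1 for more cisplatin killing; genes are active when the two siRNAs give the same sign, summing to ±2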
Meaning of the calls: active = both siRNAs shift cisplatin killing the same way; inactive = no consistent shift, or siRNA harmful alone
Here is one part, drawn at random, of about 23,000 deposited reagents. 455 of them (2%) count as active. 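Active includes both protection and sensitisation; some change values fall well beyond the stated -50 to +50 range.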 Unmarked entries are inactive. Not all columns of the deposit are shown. The record does not give: the amount of reagent.

{"Gene": "PMS2P2", "two-siRNA summed score (-2 to +2)": 0, "mean protection from cisplatin (shift in death) (%)": -3.5}
{"Gene": "GREM2", "two-siRNA summed score (-2 to +2)": 0, "mean protection from cisplatin (shift in death) (%)": 1.4}
{"Gene": "PCBP4", "two-siRNA summed score (-2 to +2)": 1, "mean protection from cisplatin (shift in death) (%)": 2.9}
{"Gene": "LOC390345", "two-siRNA summed score (-2 to +2)": 1, "mean protection from cisplatin (shift in death) (%)": 7.4}
{"Gene": "ZNF830", "two-siRNA summed score (-2 to +2)": 0, "mean protection from cisplatin (shift in death) (%)": 4}
{"Gene": "MAD2L1", "two-siRNA summed score (-2 to +2)": 0, "mean protection from cisplatin (shift in death) (%)": -1.2}
{"Gene": "IFNA1", "two-siRNA summed score (-2 to +2)": 0, "mean protection from cisplatin (shift in death) (%)": -8.6}
{"Gene": "LOC128387", "two-siRNA summed score (-2 to +2)": 0, "mean protection from cisplatin (shift in death) (%)": 2.8}
{"Gene": "ADAMTS19", "two-siRNA summed score (-2 to +2)": 0, "mean protection from cisplatin (shift in death) (%)": -5.7}
{"Gene": "RNF150", "two-siRNA summed score (-2 to +2)": -1, "mean protection from cisplatin (shift in death) (%)": -10.9}
{"Gene": "KDM4B", "two-siRNA summed score (-2 to +2)": -1, "mean protection from cisplatin (shift in death) (%)": -25.4}
{"Gene": "ZCCHC3", "two-siRNA summed score (-2 to +2)": 0, "mean protection from cisplatin (shift in death) (%)": -5.1}
{"Gene": "VPS25", "two-siRNA summed score (-2 to +2)": 0, "mean protection from cisplatin (shift in death) (%)": 1}
{"Gene": "SPHK1", "two-siRNA summed score (-2 to +2)": 1, "mean protection from cisplatin (shift in death) (%)": 18.1}
{"Gene": "LOC401478", "two-siRNA summed score (-2 to +2)": 0, "mean protection from cisplatin (shift in death) (%)": 3.2}
{"Gene": "G3BP2", "two-siRNA summed score (-2 to +2)": 0, "mean protection from cisplatin (shift in death) (%)": 5}
{"Gene": "RPL23A", "two-siRNA summed score (-2 to +2)": 0, "mean protection from cisplatin (shift in death) (%)": 8.9}
{"Gene": "CENPB", "two-siRNA summed score (-2 to +2)": 1, "mean protection from cisplatin (shift in death) (%)": 18.7}
{"Gene": "SPANXB1", "two-siRNA summed score (-2 to +2)": 0, "mean protection from cisplatin (shift in death) (%)": -5}
{"Gene": "PGBD1", "two-siRNA summed score (-2 to +2)": 1, "mean protection from cisplatin (shift in death) (%)": 12.5}
{"Gene": "VCF1", "two-siRNA summed score (-2 to +2)": 0, "mean protection from cisplatin (shift in death) (%)": 6.4}

2 of these entries, set out differently.
{"Gene":"MAD2L1","two-siRNA summed score (-2 to +2)":0,"mean protection from cisplatin (shift in death) (%)":-1.2}
{"Gene":"IFNA1","two-siRNA summed score (-2 to +2)":0,"mean protection from cisplatin (shift in death) (%)":-8.6}
